Assay results taken from PubChem BioAssay AID504444 (National Center for Advancing Translational Sciences (NCATS), 2011).
In all, about 360,000 compounds went through this assay and about 7,500 (2.1%) were called active. The shares of active, inactive and inconclusive entries below differ from those in the screen. Calls come from the whole dose curve; as a rule, active = well fitted inhibition curve with a large enough effect; inconclusive = small, poorly fitted or top-dose-only effect, or effect the other way; inactive = flat fitted curve, though single readings scatter. A potency beside an inconclusive call is a rough fit, not a confirmed value.

assay: Nrf2 qHTS screen for inhibitors; settings: A549 ARE-Fluc reporter, luciferase luminescence, 18-24 h; series mostly up to 46 µM; note: nearly all actives have a fitted effect of over 60% in size
Summary of the method: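 Quantitative HTS in A549 cells stably bearing an antioxidant response element-firefly luciferase construct. Inhibition of Nrf2-driven transcription was scored by luminescence after 18-24 h of compound exposure at 37 °C.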
Potency is the fitted concentration of half-maximal effect.

Compound | Potency
Cc1ccc(/C=C/C(=O)Nc2cc(=O)n(C)c(=O)n2C)o1 | inactive
CCOC(=O)C1=C(C)N(Cc2ccccc2)C(=O)NC1c1ccccc1OS(=O)(=O)c1ccccc1[N+](=O)[O-] (stereo not drawn) | inconclusive: 29.1 µM [falling, single point]
CCCCN(CCCC)S(=O)(=O)c1ccc(NC(=O)c2ccc([N+](=O)[O-])cc2Cl)cc1 | inconclusive: 29.1 µM [falling, single point]
COc1ccc(N2CC(=O)N(c3ccccc3)C2=S)cc1 | inconclusive: 10.3 µM [activator, partial curve]
COc1cc2nc(C3CCC3)nc(N3CCN(c4ccccc4OC)CC3)c2cc1OC | active: 18.4 µM
O=C1/C(=C\c2ccc(O)cc2)SC(=S)N1Cc1ccccc1 | inactive
Cc1ccc(NC(=O)C2CCCN(S(=O)(=O)c3ccc(C)cc3)C2)cc1 (stereo not drawn) | inactive
COc1cc(/C=N/Nc2nc(C)cc(C)n2)ccc1OC(=O)c1ccco1 | inactive
Cc1ccc(-c2nc3ncccc3o2)cc1NC(=S)NC(=O)c1ccco1 | inconclusive: 13 µM [activator, partial curve]
COc1ccccc1CNC(=O)CSc1ncc(C(=O)Nc2ccccc2)c(=O)n1C | inconclusive: 3.26 µM [activator, full curve, poor fit]
O=C1CN(C(=O)COc2ccc(Cl)c(Cl)c2)c2ccccc2N1 | inconclusive: 11.6 µM [falling, partial curve]
N#Cc1cccnc1N1CCN(C(=O)c2cccc3c2C(=O)c2ccc(Cl)cc2S3(=O)=O)CC1 | inconclusive: 20.6 µM [activator, single point]
Cc1ccc(C(C)C)c(OCC(=O)NNC2=CC(=O)CC(C)(C)C2)c1 | inactive
CCC(=O)c1ccc(OCC(O)CN(CCc2ccccc2)Cc2ccccc2)cc1 (stereo not drawn) | inconclusive: 29.1 µM [falling, single point]
COc1ccccc1N(CC(=O)NCCSc1ccccc1)S(=O)(=O)c1ccc(C)cc1 | inconclusive: 25.9 µM [falling, single point]
Cc1ccc(NC(=O)CCNS(=O)(=O)c2cccs2)cc1F | inconclusive: 29.1 µM [activator, partial curve, poor fit]
CCOC(=O)C1CCCN(C(=O)c2ccc(Cl)c(S(=O)(=O)N3CCCCCC3)c2)C1 (stereo not drawn) | inconclusive: 13 µM [activator, partial curve, poor fit]
COc1ccc(NC(=O)c2ccc(-n3cccn3)nc2)cc1 | inconclusive: 16.4 µM [falling, partial curve, poor fit]
COc1ccc(C(CNC(=O)c2ccc3c(c2)C(=O)N(CCC(C)C)C3=O)N2CCOCC2)cc1 (stereo not drawn) | inconclusive: 29.1 µM [activator, single point]
Cc1cn2c(=O)cc(COC(=O)COc3ccc(F)cc3)nc2s1 | inconclusive: 11.6 µM [activator, partial curve, poor fit]
COc1ccc2nc(C(F)(F)Cl)c(C#N)c(N)c2c1 | active: 20.6 µM
CCOc1ccc(S(=O)(=O)N2CCC(C(=O)NCc3ccco3)CC2)cc1 | inactive

A second format for some results above.
Compound,Potency
Cc1ccc(/C=C/C(=O)Nc2cc(=O)n(C)c(=O)n2C)o1,inactive
CCOC(=O)C1=C(C)N(Cc2ccccc2)C(=O)NC1c1ccccc1OS(=O)(=O)c1ccccc1[N+](=O)[O-] (stereo not drawn),"inconclusive: 29.1 µM [falling, single point]"
O=C1CN(C(=O)COc2ccc(Cl)c(Cl)c2)c2ccccc2N1,"inconclusive: 11.6 µM [falling, partial curve]"
N#Cc1cccnc1N1CCN(C(=O)c2cccc3c2C(=O)c2ccc(Cl)cc2S3(=O)=O)CC1,"inconclusive: 20.6 µM [activator, single point]"
Cc1ccc(C(C)C)c(OCC(=O)NNC2=CC(=O)CC(C)(C)C2)c1,inactive
Cc1ccc(NC(=O)CCNS(=O)(=O)c2cccs2)cc1F,"inconclusive: 29.1 µM [activator, partial curve, poor fit]"
COc1ccc(NC(=O)c2ccc(-n3cccn3)nc2)cc1,"inconclusive: 16.4 µM [falling, partial curve, poor fit]"
CCOc1ccc(S(=O)(=O)N2CCC(C(=O)NCc3ccco3)CC2)cc1,inactive

The list goes on.

Compound | Potency
Cc1ccc(NC(=O)c2ccc(Cl)c(S(=O)(=O)N3CCc4ccccc43)c2)nc1 | inconclusive: 18.4 µM [falling, single point]
NNCCc1ccccc1 | inconclusive: 8.2 µM [activator, partial curve]
Cc1cccc(COc2ccc(-c3cc(C(F)(F)F)n4nc(C)cc4n3)cc2)c1 | inconclusive: 16.4 µM [activator, partial curve, poor fit]
C=CCOc1ccc(/C=C2\SC(=S)N(CCC(=O)O)C2=O)cc1 | inconclusive: 4.61 µM [falling, partial curve, poor fit]
O=C(NCc1cccs1)C1CC(c2ccccc2O)=NO1 (stereo not drawn) | inactive
CN(C)c1ccc(NC(=O)/C=C/c2c(Cl)cccc2Cl)cc1 | inconclusive: 25.9 µM [activator, single point]
CC(=O)N1c2ccc(S(=O)(=O)N3CCCC3C(=O)Nc3cccc(F)c3)cc2CC1C (stereo not drawn) | inconclusive: 16.4 µM [falling, single point]
O=C(CCC1N=C2c3ccccc3N=C(SCc3cccc(Cl)c3)N2C1=O)NCc1ccco1 (stereo not drawn) | inactive
Cc1ccc(CNC(=O)CCN2C(=O)C(C)Oc3ccc(C)cc32)cc1 (stereo not drawn) | inactive
CC1CCN(C(=O)c2ccc(CSc3nc4ccncc4n3Cc3ccc(F)cc3)cc2)CC1 | inconclusive: 20.6 µM [falling, partial curve]
CSc1nc2sc3c(c2c(=O)n1-c1ccc(C)cc1)CCCC3 | inactive
CC(C)c1nc(N2CCOCC2)c(C#N)c2c1CCC2 | inconclusive: 23.1 µM [falling, single point]
O=C(NC1CCCC1)c1cccc(Oc2ccccc2)c1 | inconclusive: 25.9 µM [activator, partial curve]
CCOC(=O)c1cnn(-c2cccc(Cl)c2)c1C1CCN(C(=O)OC(C)(C)C)CC1 | inconclusive: 23.1 µM [falling, single point]
CC1=NN(c2ccccc2)C(=O)C1N=Nc1ccc(N)cc1 (stereo not drawn) | inconclusive: 13 µM [falling, partial curve, poor fit]
CCOC(=O)C1=C(CN(CC)Cc2ccccc2)NC(=O)NC1c1ccc(Cl)cc1 (stereo not drawn) | inconclusive: 18.4 µM [falling, single point]
Cc1ccc(-n2c(C)cc(C(=O)CN3C(=O)C(=O)N(C4CCCC4)C3=O)c2C)cc1 | inconclusive: 29.1 µM [falling, single point]
CC1CCc2c(sc3nnn(CC(=O)Nc4ccccc4Cl)c(=O)c23)C1 (stereo not drawn) | inactive
Cn1c(=O)c2c(nc(SCC(=O)N3CCCCCC3)n2C)n(C)c1=O | inconclusive: 10.3 µM [activator, single point]
CCOC(=O)N1CCC(N(CCCOC)C(=O)Nc2cccc(OC)c2)CC1 | inactive
O=C(CNS(=O)(=O)c1ccccc1)N1CCc2ccccc2C1 | inconclusive: 14.6 µM [activator, partial curve]
